PMC8895007, “Crystal structures of PigF, an O-methyltransferase involved in the prodigiosin synthetic pathway, reveal an induced-fit substrate-recognition mechanism” (IUCrJ, 2022)
No constants are given. Whether binding was seen depends on the method and setting. Some binding calls cover weakened binding; strength is not graded here.

Legend:
[1] = target: Selenomethionine-derivatized PigF from Serratia marcescens FS14 (Serratia marcescens FS14) (UniProt Q5W249); assay: crystal structure; apo SeMet PigF, hanging-drop vapour diffusion, pH 4.6, 12% MPD, space group P12(1)1, two molecules in the asymmetric unit, 1.9 A; both purified
[2] = target: PigF, O-methyltransferase of the prodigiosin synthetic pathway from Serratia marcescens FS14 (Serratia marcescens FS14) (UniProt Q5W249); assay: crystal structure; PigF premixed with 2 mM SAH, hanging-drop vapour diffusion, pH 4.6, 12% MPD, space group P12(1)1, two monomers in the asymmetric unit, 1.97 A; both purified

Binder | binding [1] | binding [2]
Selenomethionine-derivatized PigF from Serratia marcescens FS14 (enzyme, UniProt Q5W249 1-338, selenomethionine in place of methionine (SeMet-derivatized)) MPLTKQDAVNQMMGFFQAKALTAALALKLFDQLRDRDADAAHIAARLDCPARSTEQLLIALRAMGYLDQRDGLYHLPAAHRAFLLSDEPQWLGWLGRHIDTFLYPLWGELKTAVRNDAHQRRTVFGDDRSWFDILYQNPDDVADFQEFLGKFAAPFIAGFVRDYDFSQHRAFLDIGSGIGSLPMAIADAYPGIALAICELPQASAFLRDKLTLQGYGERIDVVEGDVISGDLPIGGYDLIHLGWMLHDYAPETQLTILRNIYRAMPAGGRFIASETPLNEDKSGPEFTALLSLNMLVSTDGGIESSAQEYLDRFRLAGFSNARIMKIAGPRTLIVGEK | binds | 
PigF, O-methyltransferase of the prodigiosin synthetic pathway from Serratia marcescens FS14 (enzyme, PigF of Serratia marcescens FS14, 338 amino-acid residues; 100% identical to PigF of S. marcescens VGH107 (NCBI WP 004940222.1); residues 3-338 are seen in both chains of the PigF-SAH structure; Cloned into pET-24b as in Liu et al., 2012; The results call the protein N-terminally polyhistidine-tagged; pET-24b usually adds a C-terminal His tag (surmise); Crystallised with 2 mM SAH (small molecule) …) MPLTKQDAVNQMMGFFQAKALTAALALKLFDQLRDRDADAAHIAARLDCPARSTEQLLIALRAMGYLDQRDGLYHLPAAHRAFLLSDEPQWLGWLGRHIDTFLYPLWGELKTAVRNDAHQRRTVFGDDRSWFDILYQNPDDVADFQEFLGKFAAPFIAGFVRDYDFSQHRAFLDIGSGIGSLPMAIADAYPGIALAICELPQASAFLRDKLTLQGYGERIDVVEGDVISGDLPIGGYDLIHLGWMLHDYAPETQLTILRNIYRAMPAGGRFIASETPLNEDKSGPEFTALLSLNMLVSTDGGIESSAQEYLDRFRLAGFSNARIMKIAGPRTLIVGEK |  | binds
